Assay results reported in article PMC2656613.
No constants are given. Whether binding was seen depends on the method and setting. Binding seen in cells or lysates may run through a third protein. Some binding calls cover weakened binding; strength is not graded here.

Amino acid sequences for entries named in this document (tags omitted).
UniProt O08586: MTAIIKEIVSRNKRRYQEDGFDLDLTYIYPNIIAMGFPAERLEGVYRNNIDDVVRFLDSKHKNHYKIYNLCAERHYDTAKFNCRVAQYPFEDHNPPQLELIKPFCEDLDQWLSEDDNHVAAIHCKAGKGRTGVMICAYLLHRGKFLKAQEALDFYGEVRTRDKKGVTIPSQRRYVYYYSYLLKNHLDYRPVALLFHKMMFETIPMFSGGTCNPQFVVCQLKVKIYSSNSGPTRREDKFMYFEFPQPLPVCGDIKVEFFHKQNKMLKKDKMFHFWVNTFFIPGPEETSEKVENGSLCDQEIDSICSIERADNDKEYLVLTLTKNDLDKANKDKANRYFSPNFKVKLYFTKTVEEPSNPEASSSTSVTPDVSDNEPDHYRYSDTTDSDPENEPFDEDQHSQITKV

Target: T1, thioredoxin (Trx1) (mouse (endogenous in MMTV-PyVT mammary tumor cells)) (UniProt P10639)
T1 sequence: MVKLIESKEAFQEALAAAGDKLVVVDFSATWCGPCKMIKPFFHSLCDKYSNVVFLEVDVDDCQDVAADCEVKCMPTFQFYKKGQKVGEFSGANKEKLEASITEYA
Test: co-IP; 500 µg lysate in RIPA buffer, pre-cleared with rabbit IgG and protein G-Sepharose, 2 µg anti-Trx1 or anti-PTEN antibody overnight at 4°C, protein G-Sepharose, Western blotting; lysates from PyVT(+/−)/ADN(+/+) and PyVT(+/−)/ADN(+/−) tumors

binding: binds
Substance: phosphatase and tensin homolog (PTEN) (from UniProt O08586 1-403)
